{"source": "PubChem BioAssay AID624291", "about": "(National Center for Advancing Translational Sciences (NCATS), 2012)", "note": "About 220 (0.063%) of roughly 350,000 compounds were called active. Inconclusive results, whose numbers are uncertain, are shown with a selection of clear calls. Calls come from the whole dose curve; as a rule, active = well fitted activation curve with a large enough effect; inconclusive = small, poorly fitted or top-dose-only effect; inactive = no such curve, though single readings can be large or run the other way. A potency beside an inconclusive call is a rough fit, not a confirmed value. Potency is the fitted concentration of half-maximal effect.", "data": [{"assay": "qHTS for Activators of Integrin-Mediated Alleviation for Muscular Dystrophy; note: nearly all actives have a fitted effect of over 60% in size;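 for activation: 100% = response of the positive control SU9516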", "conditions": "alpha7betagal myoblasts, beta-gal FDG fluorescence, 48 h; activation: at 38.3 µM (top of the series)", "how_it_was_run": "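alpha7betagal+/- myoblasts (passage 13, 250/well) treated 48 h at 37C with compounds at 1:260 dilution of DMSO stock. Lysed, then beta-galactosidase activity read as FDG fluorescence (ex 480/em 540) after 30 min, with pre-read for autofluorescence.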", "values": [{"smiles": "COc1cccc(CNS(=O)(=O)/C=C/c2ccc3c(c2)OCO3)c1", "Potency": "inconclusive: 5.01 µM [activator, single point]"}, {"smiles": "O=C(NCc1ccc(Cl)cc1)C1CCCN(C(=O)c2ccc(Cl)cc2)C1", "note": "(stereo not given)", "Potency": "inconclusive: 0.501 µM [activator, partial curve, poor fit]"}, {"smiles": "O=C(N/N=C/c1cccc(C(F)(F)F)c1)c1ccccc1O", "activation": "inactive: 0.508%"}, {"smiles": "Cc1ccc(NC(=S)N2CCN(c3ccccc3F)CC2)c(C)c1", "Potency": "inconclusive: 11.2 µM [activator, partial curve, poor fit]"}, {"smiles": "CCC(=O)N(CCC(Cc1ccccc1)c1ccc2c(c1)OCO2)Cc1ccccc1F", "note": "(stereo not given)", "Potency": "inconclusive: 7.08 µM [activator, partial curve, poor fit]"}, {"smiles": "COc1ccc2[nH]c3c(=O)n(Cc4ccc(C(=O)N5CCC(C(N)=O)CC5)cc4)c(=S)[nH]c3c2c1", "Potency": "inconclusive: 12.6 µM [activator, partial curve, poor fit]"}, {"smiles": "COc1ccc(CCC(=O)OCC(=O)Nc2sccc2C(N)=O)cc1", "Potency": "inconclusive: 5.01 µM [activator, single point]"}, {"smiles": "Cc1ccnc(NC(=O)CCC(=O)N(CC(=O)NCc2ccccc2)Cc2ccccc2)c1", "Potency": "inconclusive: 5.01 µM [activator, single point]"}, {"smiles": "O=C(NC(=S)NNC(=O)c1ccccc1O)c1cccnc1", "Potency": "inconclusive: 0.501 µM [activator, full curve, poor fit]"}, {"smiles": "COc1cc(OC)cc(C(=O)NCc2ccc3[nH]c(C)cc3c2)c1", "activation": "inactive: 0%"}, {"smiles": "CCC(=O)NC(=S)Nc1ccc(NC(=O)c2ccc(Br)o2)cc1", "Potency": "inconclusive: 1 µM [activator, full curve, poor fit]"}, {"smiles": "Oc1ccccc1C1=NN(c2ccccc2)C(c2ccc(F)cc2)C1", "note": "(stereo not given)", "Potency": "inconclusive: 2.51 µM [activator, partial curve, poor fit]"}, {"smiles": "COc1ccc(F)c(CN2CCCC(CNS(=O)(=O)c3cccc4cccnc34)C2)c1", "note": "(stereo not given)", "Potency": "inconclusive: 28.2 µM [activator, single point]"}, {"smiles": "COCCCn1c(C)nnc1SCC(=O)Nc1ccc(C(C)=O)cc1", "Potency": "inconclusive: 8.91 µM [activator, partial curve, poor fit]"}, {"smiles": "CCc1ccc(NC(=O)C/C(C)=N/NC(=O)COc2ccccc2C)cc1", "activation": "inactive: -13.6%"}, {"smiles": "CC(=O)Nc1ccc(S(=O)(=O)N2CCN(S(=O)(=O)N3CCOCC3)CC2)cc1", "Potency": "inconclusive: 6.31 µM [activator, partial curve, poor fit]"}, {"smiles": "COc1ccc(NC(=O)c2cc(S(=O)(=O)N3CCOCC3)ccc2N2CCOCC2)cc1", "Potency": "inconclusive: 3.55 µM [activator, single point]"}, {"smiles": "O=C(N/N=C\\C=C\\c1ccc2c(c1)OCO2)C1COc2ccccc2O1", "note": "(stereo not given)", "Potency": "inconclusive: 17.8 µM [activator, single point]"}, {"smiles": "COc1ccc(C(=O)O)cc1S(=O)(=O)N(CCc1ccccc1)Cc1ccccc1", "Potency": "inconclusive: 2 µM [activator, partial curve, poor fit]"}, {"smiles": "COCC1CCCN(C(=O)c2cc(COc3ccc4ncccc4c3)on2)C1", "note": "(stereo not given)", "activation": "inactive: -18.8%"}, {"smiles": "CCN(CC)CCN(C)C(=O)c1ccc(OC2CCN(C(=O)C3CC3)CC2)cc1", "Potency": "inconclusive: 0.794 µM [activator, full curve, poor fit]"}, {"smiles": "Cc1cc(-n2c(SCC(=O)Nc3ccc(Br)cc3)nc3n[nH]c(C)c3c2=N)ccc1Cl", "activation": "inactive: -45.7%"}, {"smiles": "CCCOc1ccc(/C(O)=C2/C(=O)C(=O)N(c3ccccn3)C2c2ccc(OC)cc2)cc1C", "note": "(stereo not given)", "Potency": "inconclusive: 1.58 µM [activator, partial curve, poor fit]"}, {"smiles": "CC(C)(C)c1ccc(C(=O)Nc2ncn[nH]2)cc1", "Potency": "inconclusive: 3.98 µM [activator, full curve, poor fit]"}, {"smiles": "O=C(c1ccc(Cl)c(S(=O)(=O)NCc2cccnc2)c1)N1CCCC1", "Potency": "inconclusive: 1.26 µM [activator, partial curve, poor fit]"}, {"smiles": "O=C(NCCc1ccccc1)C1COc2ccccc2O1", "note": "(stereo not given)", "activation": "inactive: 12.7%"}, {"smiles": "O=C(CSc1ccc(Cl)cc1)Nc1cccc(NC(=O)c2ccco2)c1", "Potency": "inconclusive: 28.2 µM [activator, single point]"}, {"smiles": "Cn1c(Oc2ccc(F)cc2)c(C=O)c2ccccc21", "activation": "inactive: 21.3%"}, {"smiles": "N#Cc1nc(COc2ccc(Br)cc2)oc1NCCCn1ccnc1", "Potency": "inconclusive: 5.62 µM [activator, full curve, poor fit]"}, {"smiles": "O=C(NCCCN1CCOCC1)c1onc(CSc2ccncc2)c1C(=O)NCCCN1CCOCC1", "activation": "inactive: 5.33%"}, {"smiles": "CCn1c(CCCOc2ccc(Cl)cc2Cl)nnc1SCC(=O)Nc1cc(F)ccc1C", "activation": "inactive: -36.6%"}, {"smiles": "Cc1cc(N=Nc2ccc(C)c(N=Nc3cc(C)c(N)cc3N)c2)c(N)cc1N", "activation": "inactive: -19.2%"}, {"smiles": "CC(=O)NCCSc1ccc(S(=O)(=O)N2CCCC2)cn1", "Potency": "inconclusive: 5.01 µM [activator, single point]"}, {"smiles": "O=C(NC1CCCCC1)c1ccc(S(=O)(=O)N2CCCCC2)cc1", "activation": "inactive: -4.73%"}, {"smiles": "C/C(=N\\N(Cc1ccccc1)c1ccccc1)c1ccncc1", "activation": "inactive: 21.4%"}, {"smiles": "Cc1cc(-c2ccc(C)c(S(=O)(=O)NCc3ccc(Br)cc3)c2)on1", "Potency": "inconclusive: 2.24 µM [activator, partial curve, poor fit]"}, {"smiles": "O=C(c1ccc(S(=O)(=O)Nc2ccccc2)cc1)N1CCCC(C(F)(F)F)C1", "note": "(stereo not given)", "Potency": "inconclusive: 3.55 µM [activator, single point]"}, {"smiles": "O=C(CNS(=O)(=O)c1ccccc1)NCc1ccccn1", "activation": "inactive: 12.4%"}, {"smiles": "CCN(CC)C(=O)c1ccc(COc2ccccc2Cl)cc1", "activation": "inactive: -11.6%"}, {"smiles": "CCc1ccc(N2CC(C(=O)NC3CCCCC3C)CC2=O)cc1", "note": "(stereo not given)", "Potency": "inconclusive: 0.501 µM [activator, full curve, poor fit]"}, {"smiles": "NS(=O)(=O)c1ccc(CCNC(=O)c2ccc(Br)s2)cc1", "Potency": "inconclusive: 28.2 µM [activator, single point]"}, {"smiles": "O=c1cc(-c2ccccc2)c2c(O)cc(O)cc2o1", "Potency": "inconclusive: 1 µM [activator, full curve, poor fit]"}, {"smiles": "CN1CCN(C(=O)Nc2ccc([N+](=O)[O-])cc2)CC1", "Potency": "inconclusive: 2.24 µM [activator, partial curve, poor fit]"}, {"smiles": "Brc1cccc(OCCCCn2cncn2)c1", "Potency": "inconclusive: 5.01 µM [activator, single point]"}, {"smiles": "CN1CCN(CCC(=O)Nc2ccc(F)c(F)c2)CC1", "activation": "inactive: 6.12%"}, {"smiles": "CCNC(=O)COC(=O)/C=C/c1cccs1", "Potency": "inconclusive: 2.82 µM [activator, single point]"}, {"smiles": "O=C(O)CCCn1cc(NC(=O)c2sc3ccccc3c2Cl)cn1", "activation": "inactive: -2.21%"}, {"smiles": "O=C(N/N=C/c1ccncc1)c1cc(C2CC2)nc2ccccc12", "activation": "inactive: 10.4%"}, {"smiles": "O=C(CN1CCSCC1)N/N=C/c1ccc(F)cc1", "Potency": "inconclusive: 0.398 µM [activator, full curve, poor fit]"}, {"smiles": "COc1ccccc1NC(=O)Nc1nc(CC(=O)Nc2ccc(F)c(F)c2)cs1", "activation": "inactive: -11.9%"}, {"smiles": "CCOc1cc(S(=O)(=O)N2CCC(Cc3ccccc3)CC2)c(OCC)cc1-n1cnnn1", "activation": "inactive: 5.16%"}, {"smiles": "CCc1nnc(NC(=O)CCC(=O)NCc2ccc(C)cc2)s1", "Potency": "inconclusive: 5.01 µM [activator, single point]"}, {"smiles": "Cc1ccc(NCC(=O)N/N=C/c2cccn2C)cc1", "Potency": "inconclusive: 5.01 µM [activator, single point]"}, {"smiles": "Cc1onc(-c2c(Cl)cccc2Cl)c1C(=O)NC(=S)Nc1sc2c(c1C(N)=O)CCC(C)C2", "note": "(stereo not given)", "Potency": "inconclusive: 3.16 µM [activator, full curve, poor fit]"}, {"smiles": "O=C(/C=C/NNC(=O)c1ccc(Br)cc1)c1ccccc1", "Potency": "inconclusive: 2.51 µM [activator, single point]"}, {"smiles": "CCOC(=O)c1cc(=O)c2ccc(OCC(=O)Nc3ccc(F)cc3)cc2o1", "Potency": "inconclusive: 28.2 µM [activator, single point]"}, {"smiles": "O=C(Nc1cnn(Cc2ccc(F)cc2)c1)c1cnn2c(C(F)F)cc(-c3ccccc3)nc12", "Potency": "inconclusive: 4.47 µM [activator, partial curve, poor fit]"}, {"smiles": "CC(=O)c1ccc(OCC(=O)NC2CCCCCC2)cc1", "activation": "inactive: 24.7%"}, {"smiles": "CCCCNC(=O)c1cc2nc(-c3ccccc3)cc(C(F)(F)F)n2n1", "Potency": "inconclusive: 5.01 µM [activator, single point]"}, {"smiles": "Cc1ccc(Nc2nc(-c3cccnc3)cs2)cc1C", "Potency": "inconclusive: 1.78 µM [activator, single point]"}, {"smiles": "CCCN(CCC)C(=O)CC(c1ccccc1)c1cc(C)ccc1O", "note": "(stereo not given)", "activation": "inactive: 11.6%"}, {"smiles": "CC(C)C(Cl)=NOC(=O)Nc1ccc(S(N)(=O)=O)cc1", "activation": "inactive: -53.8%"}, {"smiles": "CC(C)C(=O)NNS(=O)(=O)c1ccccc1", "Potency": "inconclusive: 0.891 µM [activator, full curve, poor fit]"}, {"smiles": "CC(C)(C)NC(=O)NC(=O)CSc1ccc(S(=O)(=O)N2CCOCC2)cn1", "Potency": "inconclusive: 3.98 µM [activator, single point]"}, {"smiles": "C/C(=N\\NC(N)=S)c1ccc2c(c1)OCCO2", "Potency": "inconclusive: 31.6 µM [activator, partial curve, poor fit]"}, {"smiles": "CN(CC(=O)Nc1cccc(F)c1)C(=O)CCC1CCCCC1", "activation": "inactive: -18.5%"}, {"smiles": "O=C1NC2(O)C(=O)c3ccccc3C2(O)N1", "note": "(stereo not given)", "Potency": "inconclusive: 3.55 µM [activator, partial curve, poor fit]"}, {"smiles": "Nc1cccc(-c2c[nH]c3ncc(-c4cccnc4)cc23)c1", "Potency": "inconclusive: 2.82 µM [activator, single point]"}, {"smiles": "CC(CCc1ccccc1)NC(=O)c1ccccc1F", "note": "(stereo not given)", "Potency": "inconclusive: 3.16 µM [activator, single point]"}, {"smiles": "CCN(CC)S(=O)(=O)c1ccc2c(c1)oc(=O)n2CC(=O)NC1CCCCC1", "Potency": "inconclusive: 2.82 µM [activator, single point]"}]}]}
